Measurements reported in PubChem BioAssay AID1224830 (NIAID, 2016)

Aim: 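Host factors that control LPS-induced TNF expression in human macrophages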 (primary screen)
System: human THP-1 monocytic leukaemia cells, TNF dual-luciferase reporter clone, PMA-differentiated to macrophage-like cells
Knock-down reagent: siRNA pool against human genes, 50 nM
Timing: LPS for 4 h, given about 3 days after siRNA transfection
Treatment: bacterial LPS (TLR4 ligand), 10 ng/ml
Detection: 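Ratio of firefly to renilla light, scaled to the plate median and expressed as a robust z-score per replicate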
Reading the numbers: TNF reporter robust z-score: higher = stronger TNF reporter response to LPS
Active means: 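a well is active when its z-score exceeds 2.8 or falls below -1.5; control wells carry no call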
The deposit covers about 18,000 reagents; below is an unselected part. About 2,900 of them (16%) were called active. 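Calls are made per well; low scores hint the gene aids the LPS response, high scores that it dampens it.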 A number with no mark means an inactive call. Repeated entries: four replicate wells of each siRNA pool. No sequences are given here.

SYT12 (synaptotagmin 12)
- TNF reporter robust z-score: 0.25

SYT12 (synaptotagmin 12)
- TNF reporter robust z-score: -0.65

SYT12 (synaptotagmin 12)
- TNF reporter robust z-score: 0.49

SYT12 (synaptotagmin 12)
- TNF reporter robust z-score: -0.59

MGAM (maltase-glucoamylase)
- TNF reporter robust z-score: -1.02

MGAM (maltase-glucoamylase)
- TNF reporter robust z-score: -0.42

MGAM (maltase-glucoamylase)
- TNF reporter robust z-score: -0.3

MGAM (maltase-glucoamylase)
- TNF reporter robust z-score: 0.52

UQCC1 (ubiquinol-cytochrome c reductase complex assembly factor 1)
- TNF reporter robust z-score: -0.16

UQCC1 (ubiquinol-cytochrome c reductase complex assembly factor 1)
- TNF reporter robust z-score: -0.3

UQCC1 (ubiquinol-cytochrome c reductase complex assembly factor 1)
- TNF reporter robust z-score: -0.96

UQCC1 (ubiquinol-cytochrome c reductase complex assembly factor 1)
- TNF reporter robust z-score: 0.06

TBX1 (T-box transcription factor 1)
- TNF reporter robust z-score: -1.16

TBX1 (T-box transcription factor 1)
- TNF reporter robust z-score: -0.52

TBX1 (T-box transcription factor 1)
- TNF reporter robust z-score: -0.03

TBX1 (T-box transcription factor 1)
- TNF reporter robust z-score: 2.26

Records above whose target name starts with S or s (4):
SYT12 (synaptotagmin 12)
- TNF reporter robust z-score: 0.25

SYT12 (synaptotagmin 12)
- TNF reporter robust z-score: -0.65

SYT12 (synaptotagmin 12)
- TNF reporter robust z-score: 0.49

SYT12 (synaptotagmin 12)
- TNF reporter robust z-score: -0.59

Next results:
TFAP4 (transcription factor AP-4)
- TNF reporter robust z-score: -0.7

TFAP4 (transcription factor AP-4)
- TNF reporter robust z-score: 0.71

TFAP4 (transcription factor AP-4)
- TNF reporter robust z-score: -1.03

TFAP4 (transcription factor AP-4)
- TNF reporter robust z-score: 2.02

NEK11 (NIMA related kinase 11)
- TNF reporter robust z-score: -0.73

NEK11 (NIMA related kinase 11)
- TNF reporter robust z-score: -0.67

NEK11 (NIMA related kinase 11)
- TNF reporter robust z-score: -0.09

NEK11 (NIMA related kinase 11)
- TNF reporter robust z-score: -0.6

ZDHHC3 (zDHHC palmitoyltransferase 3)
- TNF reporter robust z-score: 0.64

ZDHHC3 (zDHHC palmitoyltransferase 3)
- TNF reporter robust z-score: 1.01

ZDHHC3 (zDHHC palmitoyltransferase 3)
- TNF reporter robust z-score: 0.31

ZDHHC3 (zDHHC palmitoyltransferase 3)
- TNF reporter robust z-score: 1.3

CLPTM1L (CLPTM1 like)
- TNF reporter robust z-score: -0.75

CLPTM1L (CLPTM1 like)
- TNF reporter robust z-score: -0.97

CLPTM1L (CLPTM1 like)
- TNF reporter robust z-score: -0.93

CLPTM1L (CLPTM1 like)
- TNF reporter robust z-score: -0.81
